Drawing on patent publication US9345764B2, “Moesin modulators and uses thereof” (SHANGHAI KEXIN BIOTECH CO., LTD., priority 2010, dated 2016), this text covers nuclei and cytoskeleton structure for one substance.

This data set has as its system HPMEC cells. As to the kind of experiment: Cytoskeleton morphology under microscope. The class given is cell-based, human. To be noted: agent alone.

On to TNF-alpha, for which the nuclei result is listed as “No apparent change in nuclei”. The cytoskeleton structure entry (up to 36 hours incubation) is “no apparent change in structure, until after 36 hrs, when partial disruption of F-actin structure was observed”.
